The values that follow come from PMC7190567.

The chains behind the UniProt entries cited, without tags or fusion partners. Residues count along the entry.
UniProt Q8JZV9: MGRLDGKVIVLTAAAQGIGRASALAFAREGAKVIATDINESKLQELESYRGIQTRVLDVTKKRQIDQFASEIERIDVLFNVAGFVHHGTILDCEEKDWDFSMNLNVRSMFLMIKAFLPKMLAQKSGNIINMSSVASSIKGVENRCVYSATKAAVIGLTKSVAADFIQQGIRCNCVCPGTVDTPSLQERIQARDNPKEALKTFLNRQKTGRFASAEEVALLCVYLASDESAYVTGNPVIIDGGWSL
UniProt E9PZM4: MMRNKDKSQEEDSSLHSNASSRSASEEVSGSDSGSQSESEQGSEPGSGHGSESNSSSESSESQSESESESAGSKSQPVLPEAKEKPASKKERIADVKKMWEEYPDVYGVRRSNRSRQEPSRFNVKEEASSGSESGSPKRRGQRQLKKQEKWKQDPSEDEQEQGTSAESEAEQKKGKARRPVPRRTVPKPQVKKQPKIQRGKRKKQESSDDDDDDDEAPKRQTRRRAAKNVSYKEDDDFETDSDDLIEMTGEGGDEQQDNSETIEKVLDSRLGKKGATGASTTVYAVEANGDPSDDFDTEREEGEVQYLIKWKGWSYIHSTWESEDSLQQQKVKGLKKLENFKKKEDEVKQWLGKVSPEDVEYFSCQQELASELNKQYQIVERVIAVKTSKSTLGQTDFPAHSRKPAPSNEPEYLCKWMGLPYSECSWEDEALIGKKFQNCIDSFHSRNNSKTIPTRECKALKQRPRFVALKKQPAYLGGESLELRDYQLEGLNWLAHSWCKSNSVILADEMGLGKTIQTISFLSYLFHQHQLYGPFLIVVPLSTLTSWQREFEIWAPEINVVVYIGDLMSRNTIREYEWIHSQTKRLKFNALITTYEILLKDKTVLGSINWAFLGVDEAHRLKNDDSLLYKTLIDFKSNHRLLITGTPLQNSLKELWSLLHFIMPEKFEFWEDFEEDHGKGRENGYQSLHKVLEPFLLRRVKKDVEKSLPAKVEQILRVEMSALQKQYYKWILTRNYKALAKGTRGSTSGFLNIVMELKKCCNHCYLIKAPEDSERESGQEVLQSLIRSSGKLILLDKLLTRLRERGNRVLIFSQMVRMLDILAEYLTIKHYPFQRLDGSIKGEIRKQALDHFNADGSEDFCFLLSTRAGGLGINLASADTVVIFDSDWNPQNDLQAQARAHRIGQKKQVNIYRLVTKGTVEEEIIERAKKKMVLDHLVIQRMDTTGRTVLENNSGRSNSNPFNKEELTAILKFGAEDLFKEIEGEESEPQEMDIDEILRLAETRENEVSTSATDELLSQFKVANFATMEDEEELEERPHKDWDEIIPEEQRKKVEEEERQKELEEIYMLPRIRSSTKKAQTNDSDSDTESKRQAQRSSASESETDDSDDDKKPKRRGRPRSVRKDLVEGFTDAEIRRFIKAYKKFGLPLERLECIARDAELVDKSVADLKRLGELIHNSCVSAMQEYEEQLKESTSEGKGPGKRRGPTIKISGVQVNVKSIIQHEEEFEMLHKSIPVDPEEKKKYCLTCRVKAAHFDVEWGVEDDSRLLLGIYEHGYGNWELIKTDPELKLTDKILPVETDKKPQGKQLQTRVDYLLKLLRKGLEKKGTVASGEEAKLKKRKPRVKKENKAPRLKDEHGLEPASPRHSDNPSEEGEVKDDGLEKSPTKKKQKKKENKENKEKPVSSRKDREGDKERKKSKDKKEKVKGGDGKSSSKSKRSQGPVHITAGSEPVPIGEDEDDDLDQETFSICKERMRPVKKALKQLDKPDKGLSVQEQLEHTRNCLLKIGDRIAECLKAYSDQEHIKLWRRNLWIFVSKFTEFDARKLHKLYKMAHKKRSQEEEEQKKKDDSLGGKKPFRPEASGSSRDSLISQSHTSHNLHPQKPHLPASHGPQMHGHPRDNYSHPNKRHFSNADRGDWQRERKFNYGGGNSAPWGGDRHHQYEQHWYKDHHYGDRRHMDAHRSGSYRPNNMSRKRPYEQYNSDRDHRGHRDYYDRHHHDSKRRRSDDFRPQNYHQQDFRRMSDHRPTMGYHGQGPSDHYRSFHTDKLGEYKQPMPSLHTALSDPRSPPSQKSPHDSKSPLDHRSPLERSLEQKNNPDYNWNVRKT
UniProt P19096: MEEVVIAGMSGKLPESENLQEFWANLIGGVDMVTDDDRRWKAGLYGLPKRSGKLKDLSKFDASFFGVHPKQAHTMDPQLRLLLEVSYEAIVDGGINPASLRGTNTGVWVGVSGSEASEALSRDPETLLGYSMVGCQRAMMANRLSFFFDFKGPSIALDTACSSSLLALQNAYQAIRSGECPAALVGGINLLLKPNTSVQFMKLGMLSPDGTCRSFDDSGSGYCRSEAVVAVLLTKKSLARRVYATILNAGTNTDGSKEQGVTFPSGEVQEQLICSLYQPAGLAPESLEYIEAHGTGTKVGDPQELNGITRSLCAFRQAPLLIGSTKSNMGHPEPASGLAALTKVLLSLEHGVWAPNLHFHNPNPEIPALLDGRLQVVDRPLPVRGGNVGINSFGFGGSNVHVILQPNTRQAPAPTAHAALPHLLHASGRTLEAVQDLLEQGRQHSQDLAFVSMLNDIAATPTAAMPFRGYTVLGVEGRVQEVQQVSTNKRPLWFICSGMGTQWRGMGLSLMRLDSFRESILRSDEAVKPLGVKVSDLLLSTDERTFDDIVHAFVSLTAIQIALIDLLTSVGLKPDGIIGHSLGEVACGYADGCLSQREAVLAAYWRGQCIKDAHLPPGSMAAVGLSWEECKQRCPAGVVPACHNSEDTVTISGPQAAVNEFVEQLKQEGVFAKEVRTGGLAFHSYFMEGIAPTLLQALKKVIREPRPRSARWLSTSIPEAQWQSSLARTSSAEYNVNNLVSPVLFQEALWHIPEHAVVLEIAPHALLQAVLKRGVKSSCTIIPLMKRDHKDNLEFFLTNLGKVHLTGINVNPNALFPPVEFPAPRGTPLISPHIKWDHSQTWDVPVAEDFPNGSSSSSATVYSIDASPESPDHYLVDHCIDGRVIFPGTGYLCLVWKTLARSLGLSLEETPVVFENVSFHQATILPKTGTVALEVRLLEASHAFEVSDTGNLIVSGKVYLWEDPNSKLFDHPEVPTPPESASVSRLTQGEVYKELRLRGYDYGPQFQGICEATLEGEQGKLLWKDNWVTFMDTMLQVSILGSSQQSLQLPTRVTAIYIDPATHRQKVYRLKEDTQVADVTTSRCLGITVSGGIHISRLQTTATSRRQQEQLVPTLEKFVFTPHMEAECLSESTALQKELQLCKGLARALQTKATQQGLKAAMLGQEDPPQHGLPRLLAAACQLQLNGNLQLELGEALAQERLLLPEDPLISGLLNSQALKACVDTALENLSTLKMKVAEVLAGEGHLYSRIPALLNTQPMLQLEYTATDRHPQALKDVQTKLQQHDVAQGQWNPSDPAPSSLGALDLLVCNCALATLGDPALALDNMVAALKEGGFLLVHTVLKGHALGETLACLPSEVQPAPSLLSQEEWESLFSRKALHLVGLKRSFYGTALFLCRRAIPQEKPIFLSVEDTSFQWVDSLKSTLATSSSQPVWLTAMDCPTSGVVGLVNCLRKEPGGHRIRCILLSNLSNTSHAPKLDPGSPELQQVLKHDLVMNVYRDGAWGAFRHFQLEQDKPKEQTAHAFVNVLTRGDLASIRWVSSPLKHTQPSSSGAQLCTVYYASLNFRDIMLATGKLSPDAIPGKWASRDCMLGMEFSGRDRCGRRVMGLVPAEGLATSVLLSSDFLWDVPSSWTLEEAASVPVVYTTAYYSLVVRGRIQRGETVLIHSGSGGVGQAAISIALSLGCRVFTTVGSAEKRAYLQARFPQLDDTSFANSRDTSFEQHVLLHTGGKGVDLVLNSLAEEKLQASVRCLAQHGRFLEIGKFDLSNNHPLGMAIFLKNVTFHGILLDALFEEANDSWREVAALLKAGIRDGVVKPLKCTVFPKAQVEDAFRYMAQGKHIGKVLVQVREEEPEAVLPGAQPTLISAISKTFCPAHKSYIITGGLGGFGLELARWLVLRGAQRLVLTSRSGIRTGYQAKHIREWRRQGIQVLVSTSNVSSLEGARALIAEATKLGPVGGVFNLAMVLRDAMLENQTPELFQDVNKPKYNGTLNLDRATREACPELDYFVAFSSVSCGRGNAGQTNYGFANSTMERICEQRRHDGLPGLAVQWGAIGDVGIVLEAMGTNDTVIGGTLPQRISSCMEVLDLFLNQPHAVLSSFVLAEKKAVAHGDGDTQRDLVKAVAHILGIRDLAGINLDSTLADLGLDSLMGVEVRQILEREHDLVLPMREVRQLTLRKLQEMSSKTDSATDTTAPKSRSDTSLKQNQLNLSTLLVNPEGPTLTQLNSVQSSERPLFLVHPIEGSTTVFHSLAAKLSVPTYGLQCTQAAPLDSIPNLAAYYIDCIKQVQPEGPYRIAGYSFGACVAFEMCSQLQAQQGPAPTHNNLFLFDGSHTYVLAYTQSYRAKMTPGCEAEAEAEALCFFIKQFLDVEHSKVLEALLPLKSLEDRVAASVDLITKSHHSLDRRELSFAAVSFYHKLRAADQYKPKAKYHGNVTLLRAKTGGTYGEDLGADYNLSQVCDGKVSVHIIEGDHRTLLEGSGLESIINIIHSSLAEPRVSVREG
UniProt P97772, residues 21-1199: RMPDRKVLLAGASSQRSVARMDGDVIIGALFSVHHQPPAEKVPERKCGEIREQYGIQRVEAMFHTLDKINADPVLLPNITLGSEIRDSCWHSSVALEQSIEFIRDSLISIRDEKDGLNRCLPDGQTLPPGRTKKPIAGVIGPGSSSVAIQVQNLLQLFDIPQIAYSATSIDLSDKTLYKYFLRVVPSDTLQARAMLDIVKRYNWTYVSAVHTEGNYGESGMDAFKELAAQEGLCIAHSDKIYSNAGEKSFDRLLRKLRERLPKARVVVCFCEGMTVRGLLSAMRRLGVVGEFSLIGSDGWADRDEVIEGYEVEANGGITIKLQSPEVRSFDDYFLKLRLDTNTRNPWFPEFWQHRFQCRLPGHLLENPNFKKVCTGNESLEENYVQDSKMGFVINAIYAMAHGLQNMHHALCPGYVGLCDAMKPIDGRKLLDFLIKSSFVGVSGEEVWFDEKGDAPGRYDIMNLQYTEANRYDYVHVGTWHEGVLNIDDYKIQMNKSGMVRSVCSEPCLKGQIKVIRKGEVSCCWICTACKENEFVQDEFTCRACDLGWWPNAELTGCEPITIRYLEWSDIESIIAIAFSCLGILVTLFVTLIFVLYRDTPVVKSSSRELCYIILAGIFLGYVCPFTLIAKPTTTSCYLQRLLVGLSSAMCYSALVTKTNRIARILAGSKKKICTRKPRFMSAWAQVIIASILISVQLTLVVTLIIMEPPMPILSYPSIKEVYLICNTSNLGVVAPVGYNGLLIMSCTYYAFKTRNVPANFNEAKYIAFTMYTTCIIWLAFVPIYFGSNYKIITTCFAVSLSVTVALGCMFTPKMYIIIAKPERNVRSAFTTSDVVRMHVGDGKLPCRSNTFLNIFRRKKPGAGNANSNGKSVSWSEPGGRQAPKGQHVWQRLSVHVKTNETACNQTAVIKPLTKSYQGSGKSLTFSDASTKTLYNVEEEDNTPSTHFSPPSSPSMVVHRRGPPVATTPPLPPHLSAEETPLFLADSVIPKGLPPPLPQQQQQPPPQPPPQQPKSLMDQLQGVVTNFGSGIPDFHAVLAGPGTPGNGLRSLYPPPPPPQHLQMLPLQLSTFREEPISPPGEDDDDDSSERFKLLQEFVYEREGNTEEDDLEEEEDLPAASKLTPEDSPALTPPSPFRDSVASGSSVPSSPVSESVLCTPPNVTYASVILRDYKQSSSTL
UniProt Q922R5: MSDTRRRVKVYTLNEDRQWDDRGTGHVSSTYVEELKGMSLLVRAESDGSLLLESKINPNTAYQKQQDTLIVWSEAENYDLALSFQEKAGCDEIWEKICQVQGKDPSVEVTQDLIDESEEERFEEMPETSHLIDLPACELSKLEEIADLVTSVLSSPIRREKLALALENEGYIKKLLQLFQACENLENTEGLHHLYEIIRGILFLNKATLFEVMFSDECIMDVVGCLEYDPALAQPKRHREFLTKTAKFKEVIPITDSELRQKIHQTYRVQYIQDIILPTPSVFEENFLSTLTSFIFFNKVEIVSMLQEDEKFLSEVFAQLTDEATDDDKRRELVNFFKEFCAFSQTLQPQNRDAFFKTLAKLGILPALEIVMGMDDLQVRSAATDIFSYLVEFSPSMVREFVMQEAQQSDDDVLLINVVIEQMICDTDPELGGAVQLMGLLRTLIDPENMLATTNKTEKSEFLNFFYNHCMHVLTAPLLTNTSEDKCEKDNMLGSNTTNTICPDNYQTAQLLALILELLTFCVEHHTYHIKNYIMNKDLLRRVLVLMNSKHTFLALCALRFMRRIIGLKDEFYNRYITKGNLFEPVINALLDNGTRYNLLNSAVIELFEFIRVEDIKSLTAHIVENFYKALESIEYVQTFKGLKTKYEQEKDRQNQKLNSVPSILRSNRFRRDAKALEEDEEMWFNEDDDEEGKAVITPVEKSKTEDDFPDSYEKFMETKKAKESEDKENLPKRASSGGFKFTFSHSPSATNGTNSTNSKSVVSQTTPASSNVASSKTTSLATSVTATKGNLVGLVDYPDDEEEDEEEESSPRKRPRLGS

This test deals with T1, Caveolin-1 (wild type) (dog) (UniProt P33724).
T1 sequence: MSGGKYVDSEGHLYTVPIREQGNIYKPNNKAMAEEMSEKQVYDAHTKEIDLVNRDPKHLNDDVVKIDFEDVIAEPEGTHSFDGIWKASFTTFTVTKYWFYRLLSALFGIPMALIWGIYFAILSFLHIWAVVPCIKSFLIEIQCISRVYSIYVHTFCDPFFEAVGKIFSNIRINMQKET
As to the kind of experiment: affinity purification with mass spectrometry; CAV1 immunoprecipitated with polyclonal anti-CAV1 on Dynabeads from B16F10(CAV1-E-cadherin) cells; trypsin digest, nano-ESI-MS/MS on an LTQ ion trap, Mascot; only proteins unique to this sample listed.

These are yes or no findings as the source states them, for the method shown. In cells and extracts the contact can be indirect. A yes stands for co-enrichment or nearness to the bait. Other partners may have been found.

For the molecule “Adenomatosis polyposis coli (from UniProt Q61315 1-2845)”, the binding entry is on record as “binds”.
In the case of Afadin (from UniProt Q9QZQ1 1-1820) it was “binds”.
In the case of BOD1L (from UniProt E9Q6J5 1-3032) it was “binds”.
As to “Bdh2, 3-hydroxbutyrate dehydrogenase type 2 (from UniProt Q8JZV9 1-245)”, the binding entry is reported as “binds”.
For the molecule Centriolin (from UniProt A2AL36 1-2334), the binding entry is “binds”.
Under “Chromodomain-helicase-DNA-binding protein 2 (from UniProt E9PZM4 1-1827)” stands “binds”; under “Citron Rho-interacting kinase (from UniProt P49025)”, “binds”.
Under “DIP2 disco-interacting protein 2 homolog C (mouse (endogenous in B16F10))” stands “binds”.
In the case of “Dennd4a, C-myc promoter-binding protein (mouse (endogenous in B16F10))” it was “binds”; in that of “Diaphanous homolog 3 (from UniProt Q9Z207 1-1171)”, “binds”.
Regarding “Disheveled-associated activator of morphogenesis 2 (from UniProt Q80U19 1-1115)”, the binding result is reported as “binds”.
In the case of “E3 Ubiquitin-protein ligase RNF213 (from UniProt E9Q555 1-5148)” it was “binds”; in that of “FAM129C, Phospholipid binding (mouse (endogenous in B16F10))”, “binds”; in that of “Fatty acid synthase (from UniProt P19096 1-2504)”, “binds”.
Under “Hydrocephalus-inducing protein (from UniProt Q80W93 1-5154)” stands “binds”; under “Metabotropic glutamate receptor 1 (from UniProt P97772 21-1199)”, “binds”.
For the molecule “Microtubule-actin cross-linking factor 1 (from UniProt Q9QXZ0 1-7354)”, the binding result is “binds”.
Take “Multidomain presynaptic cytomatrix protein (from UniProt Q9QYX7 1-5068)”: the binding entry is listed as “binds”.
For the molecule “Multiple PDZ domain protein (from UniProt Q8VBX6 1-2055)”, the binding result was “binds”.
With “PH-interacting protein (from UniProt Q8VDD9 1-1821)”, the binding entry is given as “binds”.
In the case of “Protein Cyp2j 12 (mouse (endogenous in B16F10))” it was “binds”; in that of “Protocaherin-17 (mouse (endogenous in B16F10))”, “binds”; in that of “Serine/arginine repetitive matrix protein 2 (from UniProt Q8BTI8 1-2703)”, “binds”.
Under “Serine/threonine-protein kinase WNK2 (from UniProt Q3UH66 1-2149)” stands “binds”; under “Serine/threonine-protein phosphatase 4 regulatory subunit 3B (from UniProt Q922R5 1-820)”, “binds”; under Smad1 (from UniProt P70340 1-465), “binds”.
Regarding “TopBP1-interacting checkpoint and replication regulator (from UniProt Q8BQ33 1-1889)”, the binding result is given as “binds”.

B1: RNA-binding protein 48 (protein, UniProt Q8K2X2 1-371)
chain: MASSDGKPGGVFDHHVQTAVCDSRAKYREGRRPRAVKVYTINLESQYLLIQGVPAVGAMKELVERFALYGAIEQYNALDEYPAEDFTEVYLIKFVKLQSARVAKKKMDEQSFFGGLLHVCYAPEFETVEETRKKLQERKAYITRVTKNQDCYMAKKKPVPEQKGTKDSRQGFHPPMPGFGTAALNTSPESPPENSSSCLPYSCEFPLSCFASKSTCSRGEHVDRVSDSCNSARNHGELSRHRDHSAFSPKLQMNTYKNSVPCSSVQEAIATSQAVGRFMPRTTQLQERKRRRDCDRELGTLLETHTSSNEVLIGPKLPGIPTVDLQDDSLNTTATLIRRKLKEVISSVPKPPEDNIKDVCTSHPGKQRRRI
B1: the binding result is “binds”.

B2: S1 RNA-binding domain-containing protein 1 (protein, UniProt Q497V5 1-982)
chain: MPSLRKRVKIQAENAEPKDECSFFSELSSGSEEDNKEDSIWEPQKKVPRNRRQPASKGSKRKQGPRAKKSSQQVDDESKDVAVKEELNSPVAIVDADLEEKSHKLQTTKTLKTAAKKQKKPVPRAKKRLKVDEETSQASPLEGGGSNVETPSTSACGNVCKKEESEDSFTFGQSPVKRIRTESCPQGRPARVPDGVSDIKEEVEMNWDVVQVLSERTNIEPWVCANIIRLFNDDNTIPFIVRYRKELINNLDADFLREVRQTLDELRDVAKKVHSRIQKIKKEGKMSECLLQALLNCKTFEELEHVSAPYKMGSKGTKAQRAKQLGLEGAAWTLLENPGQLNLLSYIKPDVKGLSELNDIETGVQHILADMIAKDKDTLDFIRGLCKHRYICIQSSLAKVSSKKVNEKEVDKFQLYQNFSCNIRTIHHHQILAINRGENLKILTVKVNISDGVKNEFCRWCIQNRWRPRGFARPELMKILHNSLDDSFKRLIVPLLCREFRAKLTSDAEKQSVMMFGQNLRQLLLTSPVPGRTLMGVDPGYKHGCKLAIISPTSQILHTDVVYLHCGQGFREAEKIKRLLLHFNCRTVVIGNGTACRETEAYFADLIMKNYFAPLDVVYCIVSEAGASIYSVSPEANKEMPGLDPNLRSAVSIARRVQDPLAELVKFDPKHIGVGMYQHDVSQTLLKATLDSVVEECVSFVGVDINICSEVLLRHIAGLNANRAKNIIEWREKNGPFINREQLKKVKGLGPKSFQQCAGFVRINQDYIRTFCSSQHTDSSGQSQETAMVTNEKLGKKKNKADATLIPNPLDQTCIHPESYDIAVRFLSFIGGTMCEIGKPEMQQKINVSLGKEGIEETAERLQTTVHTLQVIIDGLSQPKTFDIRTDFDKPDFKRSIVCLEDLQVGTVLTGKVENATLFGVFVDIGVGKAGLIPIRFITEAKLSKTKRRRSLGLGPGEKVEVKVLNVDIPRSRISLDLLRVL
Take B2: the binding entry is “binds”.

B3: Matrilin-3 (protein, UniProt O35701 28-481)
chain: APGRLARASVRRLGTRVPGGSPGHLSALATSTRAPYSGGRGAGVCKSRPLDLVFIIDSSRSVRPLEFTKVKTFVSRIIDTLDIGATDTRVAVVNYASTVKIEFQLNTYSDKQALKQAVARITPLSTGTMSGLAIQTAMEEAFTVEAGARGPMSNIPKVAIIVTDGRPQDQVNEVAARARASGIELYAVGVDRADMESLKMMASKPLEEHVFYVETYGVIEKLSARFQETFCALDQCMLGTHQCQHVCVSDGDGKHHCECSQGYTLNADGKTCSAIDKCALSTHGCEQICVNDRNGSYHCECYGGYALNADRRTCAALDKCASGTHGCQHICVNDGAGSHHCECFEGYTLNADKKTCSVRNKCALGTHGCQHICVSDGAVAYHCDCFPGYTLNDDKKTCSDIEEARSLISIEDACGCGATLAFQEKVSSHLQKLNTKLDNILKKLKVTEYGQVHR
Turning to B3, the binding entry is given as “binds”.

B4: NAD(P) transhydrogenase, mitochondrial (protein, UniProt Q61941 44-1086)
chain: CKSPVKPGIPYKQLTVGVPKEIFQNEKRVALSPAGVQALVKQGFNVVVESGAGEASKFPDDLYRAAGAQIQGMKEVLASDLVVKVRAPMVNPTLGAHEADFLKPSGTLISFIYPAQNPDLLNKLSERKTTVLAMDQVPRVTIAQGYDALSSMANISGYKAVVLAANHFGRFFTGQITAAGKVPPAKILIVGGGVAGLASAGAAKSMGAVVRGFDTRAAALEQFKSLGAEPLEVDLKESGEGQGGYAKEMSKEFIEAEMKLFAQQCKEVDILISTALIPGKKAPVLFSKEMIESMKEGSVVVDLAAEAGGNFETTKPGELYVHKGITHIGYTDLPSRMATQASTLYSNNITKLLKAISPDKDNFHFEVKDDFDFGTMSHVIRGTVVMKDGKVIFPAPTPKNIPEEAPVKPKTVAELEAEKAGTVSMYTKTLTTASVYSAGLTGMLGLGIVAPNVAFSQMVTTFGLAGIIGYHTVWGVTPALHSPLMSVTNAISGLTAVGGLALMGGHFYPSTTSQSLAALATFISSVNIAGGFLVTQRMLDMFKRPTDPPEYNYLYLLPGGTFVGGYLAALYGGYNIEEIMYLGSGLCCVGALGGLSTQGTARLGNALGMIGVAGGLAATLGGLKPDPQLLAQMSGAMAMGGTIGLTIAKRIQISDLPQLVAAFHSLVGLAAVLTCMAEYIVEYPHFAMDATSNFTKIVAYLGTYIGGVTFSGSLVAYGKLQGILKSAPLLLPGRHALNAGLLAASVGGIIPFMADPSFTTGITCLGSVSGLSTLMGVTLTAAIGGADMPVVITVLNSYSGWALCAEGFLLNNNLLTIVGALIGSSGAILSYIMCVAMNRSLANVILGGYGTTSTAGGKPMEISGTHTEINLDNAVEMIREANSIVITPGYGLCAAKAQYPIADLVKMLTEQGKKVRFGIHPVAGRMPGQLNVLLAEAGVPYDIVLEMDEINSDFPDTDLVLVIGANDTVNSAAQEDPNSIIAGMPVLEVWKSKQVIVMKRSLGVGYAAVDNPIFYKPNTAMLLGDAKKTCDALQAKVRESYQK
Take B4: the binding entry is given as “binds”.

B5: Protein spindly (protein, UniProt Q923A2 1-608)
chain: MEADITNLRNKLKECEDERLKAAHYGLQLLERQTELQSQLDKCHEEMMITAEKYNQEKHALQREVELKSRMLDSLSCECEALKQQQKAQLEQLEVQLHRSHRQEVSDLKNKLENLKVELDEARLGEKQLKQKLDLQGELLAHKSEELRLLSEQRVLSSMSSELLALETELTAAEGVKNALKEEVNELQYKQEQLECLNTSLLHQVDRLKEEKEEREREAVSYYNALEKARVENQDLQVQLGHALQQAADPNSKGNSLFAEVEDRRVAMERQLNLMKDKYQSLKKQNAFTRDQMNKMKLQISTLLRMRGSQTEFEQQERLFAMIEQKNGEIKHLLGEINKLEKFKNLYESMESRPSTSDTACVLEDSTYYSDLLQLKLDKLNKENESTKDELSIQRMKALFESQRALDIERKLFTNERHLQLSESENMKLRAKLDELKLKYEPEERIEVPVLKRRREVLPLNITTPEETEETAAASATEDGVSRLPPHREEESCLNSLKDNTVQWKQPASSCVQPASLSPHKNLHLDTQPKKEKKCVKLVDSPANIEVLHEQSGNTPNSPRLTAESKLPTEVKERIETTSKLGKGACKKSHNIIYVSSKSAPETQCSQQ
Consider B5, for which the binding result was “binds”.
